Experimental data: PubChem BioAssay AID1224830 (NIAID, 2016)
Purpose: 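Host factors that control LPS-induced TNF expression in human macrophages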 (primary screen). Cell system: human THP-1 monocytic leukaemia cells, TNF dual-luciferase reporter clone, PMA-differentiated to macrophage-like cells. Knock-down reagent: siRNA pool against human genes, 50 nM. Duration: LPS for 4 h, given about 3 days after siRNA transfection. Challenge: bacterial LPS (TLR4 ligand), 10 ng/ml. Measurement: 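Ratio of firefly to renilla light, scaled to the plate median and expressed as a robust z-score per replicate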. Direction: TNF reporter robust z-score: higher = stronger TNF reporter response to LPS. Active means: 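a well is active when its z-score exceeds 2.8 or falls below -1.5; control wells carry no call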.
In all, the deposit lists about 18,000 reagents; below is an unselected part. About 2,900 of them (16%) count as active. 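Calls are made per well; low scores hint the gene aids the LPS response, high scores that it dampens it.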 Unmarked entries are inactive. Repeated entries: four replicate wells of each siRNA pool.

Gene | TNF reporter robust z-score
HUS1 | -0.68
HUS1 | 0.67
HUS1 | -0.79
HUS1 | -0.18
C16orf46 | 0.31
C16orf46 | -0.31
C16orf46 | -0.49
C16orf46 | -1.03
MYOD1 | 0.46
MYOD1 | 0.61
MYOD1 | 0.85
MYOD1 | 1.26
CDK2AP1 | 0.26
CDK2AP1 | 0.56
CDK2AP1 | 0.21
CDK2AP1 | -0.06
SFSWAP | -0.19
SFSWAP | 0.64
SFSWAP | -0.31
SFSWAP | 0.31
NCF1 | -0.52
NCF1 | 0.05
NCF1 | 1.51
NCF1 | 0.71
TEX2 | -1.77 (active)
TEX2 | -1.99 (active)
TEX2 | -1.36
TEX2 | -1.23
MGA | 1.95
MGA | 0.17
MGA | 0.33
MGA | -0.48
FBXO38 | -1.03
FBXO38 | -0.64
FBXO38 | -1.55 (active)
FBXO38 | -1.57 (active)
ANKRD10 | -0.93
ANKRD10 | -0.32
ANKRD10 | -1.11
ANKRD10 | -0.65
ME2 | 2.17
ME2 | -0.67
ME2 | -0.57
ME2 | -0.96
GLIPR1L2 | -0.75
GLIPR1L2 | 1.32
GLIPR1L2 | 0.47
GLIPR1L2 | -0.08
HINT1 | 0.94
HINT1 | 2.06
HINT1 | 2.19
HINT1 | 1.32
TRPM6 | 0.83
TRPM6 | -0.08
TRPM6 | 0.7
TRPM6 | 1.42
SORCS2 | 0
SORCS2 | 0.94
SORCS2 | 0.53
SORCS2 | -0.19
KLRC2 | -1.07
KLRC2 | -0.38
KLRC2 | -1.14
LPGAT1 | -0.76
LPGAT1 | -0.42
LPGAT1 | -1.08
LPGAT1 | -0.74
ZNF10 | -1.53 (active)
ZNF10 | -0.75
ZNF10 | -0.86
ZNF10 | 1.26
ATP5PF | -0.14
ATP5PF | -0.65
ATP5PF | -0.42
ATP5PF | 0.09
QPCTL | -1.22
QPCTL | -1.09
QPCTL | -1.44
QPCTL | -0.56
EBPL | -1.13
EBPL | 0.01
EBPL | -0.15
EBPL | 0.07
CHAMP1 | 0.14
CHAMP1 | 1.05
CHAMP1 | -0.78
CHAMP1 | -0.01
CEP44 | -0.04
CEP44 | 0.37
CEP44 | 1.17
CEP44 | 0.04
NAT10 | 0.25
NAT10 | 0.76
NAT10 | -0.73
NAT10 | 1.04
HOOK1 | 1.01
HOOK1 | 1.23
HOOK1 | 1.93
HOOK1 | 1.6
SETD9 | 0.54
SETD9 | -0.17
SETD9 | 0.62
SETD9 | 1.23
PTER | 0.77
PTER | -0.39
PTER | 0.51
PTER | 0
NNMT | 0.18
NNMT | -0.23
NNMT | -0.4
NNMT | -0.52
